Patent publication US5482930A, “Anti-inflammatory composition and method with des-Tyr dynorphin and analogues” (The Regents of the University of California, priority 1993, dated 1996)
Not every detail of the peptide structures is certain; ends, links or a residue may be inferred.

How the values were obtained:
[1] = system: thermal edema of the hind paw; assay: Heat-induced swelling and edema of the rat hind paw (58° C. water, one minute); type: in vivo; settings: for percent increase in the weight of the heated paw, relative to the unheated paw: then peptide 0.5 mg/kg i.v.
Method: In one bioassay, dynorphin A (2-17), synthesized by standard solid phase methods, was dissolved in sterile saline and injected intravenously via a branch of the femoral vein at various doses into an anesthetized rat. Ten minutes later a hind paw was immersed in 58° C. water for one minute. Thirty minutes after exposure to heat, the paw was removed at the ankle joint and weighed. The percent increase in weight of the heated paw relative to the unheated paw was taken as the index of inflammatory thermal edema. The general principles of this method have been discussed by Wei and Thomas, Ann. Rev. of Pharmacol. and Toxicol., 33, pp. 91-108 (1993).
Anesthetized rats were injected intravenously (i.v.) with saline (1 ml/kg) or naloxone hydrochloride ([…]) 5 minutes prior to i.v. injection with saline ([…]), dynorphin A (2-17) (0.5 mg/kg), or N-acetyldynorphin A (6-12 )-amide (3 mg/kg). Ten minutes after the second injection, the rat's hind paw was immersed in 58° C. water for one minute and 30 minutes later the animals were euthanized and the heated and unheated paw weights were measured. After saline/saline or naloxone HCl/saline, the percent increase in the weight of the heated paw, relative to the unheated paw, were 104±10% and 98±9%, respectively. The percent increases for the saline/dynorphin A (2-17) and naloxone HCl/dynorphin A (2-17) groups were 26±6% and 26±5%, respectively. The percent increases for the saline/N-acetyl-dynorphin A (6-12) amide and naloxone HCl/N-acetyl-dynorphin A (6-12) amide groups were 21±3% and 27±12%, respectively.

[2] = system: epinephrine-induced pulmonary edema; assay: Epinephrine-induced pulmonary edema; type: in vivo, rat
[3] = system: substance P-induced vascular leakage; assay: Substance P-induced vascular leakage (Evans blue bluing of tissues); type: in vivo, rat; settings: 1 mg/kg i.v. 10 minutes before substance P 40 μg/kg subcutaneously
morphine dependent mice = settings: cited from earlier work

CC[C@H](C)[C@H](NC(=O)[C@H](CCCNC(=N)N)NC(=O)[C@H](CCCNC(=N)N)NC(=O)[C@H](CC(C)C)NC(=O)[C@H](Cc1ccccc1)NC(=O)CNC(=O)CN)C(=O)N[C@@H](CCCNC(=N)N)C(=O)N1CCC[C@H]1C(=O)N[C@@H](CCCCN)C(=O)N[C@@H](CC(C)C)C(=O)N[C@@H](CCCCN)C(=O)N[C@@H](Cc1c[nH]c2ccccc12)C(=O)N[C@@H](CC(=O)O)C(=O)N[C@@H](CC(N)=O)C(=O)N[C@@H](CCC(N)=O)C(=O)O [Embodiment NO:1, G-G-F-L-R-R-I-R-P-K-L-K-W-D-N-Q]
ED50, reducing thermal edema ([1]; i.v., anesthetized rat, hind paw 58° C. water one minute): 0.15 (0.09-0.24) mg/kg
percent increase in the weight of the heated paw, relative to the unheated paw ([1]; naloxone HCl pretreatment): 26±5%
antagonism of anti-inflammatory effect by naloxone ([1]; peptide 0.5 mg/kg i.v., naloxone 4 mg/kg i.v.): not antagonized
percent increase in the weight of the heated paw, relative to the unheated paw ([1]; saline pretreatment): 26±6%
lung weights ([2]; 0.2 mg/kg i.v. ten minutes before epinephrine bitartrate 30 μg/kg i.v., thirty minutes after epinephrine): 1.32±0.11 gm
effect on lung edema induced by epinephrine ([2]; 0.2 mg/kg i.v., P<0.01): inhibited the lung edema
bluing of the tissues (inflammatory response) [3]: suppressed
suppression of naloxone-induced withdrawal and the expression of morphine tolerance (morphine dependent mice): suppressing
